Test results reported in US20060128757A1, “Pyridine derivatives useful as cyclooxygenase inhibitor” (Astellas Pharma Inc., priority 2001, published 2006).

Test system: stomachs (gastric lesions) of rats
Assay: Gastric ulcerogenic activity in rats
Type: in vivo, Male Sprague-Dawley rats
Settings: oral, 5 h before autopsy, rats fasted 24 h
Experimental: Male Sprague-Dawley rats were used after a 24 h fast. Drugs were orally administered to groups of 10 rats 5 h before autopsy. The stomachs were macroscopically inspected and scored as follows: 0, no evidence of gastric lesions; 1, spotty submucosal hemorrhage or appearance of erosion; 3, widespread adherence of blood and large areas of submucosal hemorrhage or one to four small ulcers; 4, more than four small ulcers or one large ulcer; 5, numerous large ulcers.

## COc1ccc(-n2nc(C(F)(F)F)cc2-c2ccc(Cl)cc2)cc1 [F, SC-560]
  Gastric ulcerogenic activity (Non-toxic dose): <100 mg/kg
